By Kd is commonly meant the equilibrium constant for the complex coming apart.

In paper PMC7602221 one finds Kd data, which are given here for 1 sequence.

For the data set, the target named is glycated human serum albumin (GHSA) (Homo sapiens) (UniProt P02768). Kind of data set: rGO fluorescence recovery. The following applies: 12.5 ug GHSA in 100 uL, aptamer titrated; 1x PBS pH 7.4, 30 min incubation, then rGO 0.5 mg/mL (100 uL) added, centrifuged, supernatant fluorescence read; native protein; label: 5'-FAM; single-stranded DNA.

Construct, isoform or probe ends are uncertain for at least one entry.

Consider “ATGCGGATCCCGCGCGCAGTGCAGGGAGCCGCTCCACGTACGTTGCGCGAAGCTTGCGC [GABAS-01]”, for which the equilibrium dissociation constant (Kd) is 1.75 nM.
